Measured values taken from patent US20120015809A1 (priority 2009, published 2012).

Assay: Soil pH change after application

Row | SMILES | effects on soil pH compared with formic acid (FIGS. 4-6) | change of soil pH with application rate (Nettle sand and Riviera sand, FIG. 1)
1 | O=C(O)CC(O)(CC(=O)O)C(=O)O [citric acid] | less than formic acid | 
2 | O=CO [formic acid] |  | decreased linearly
